# Test results: publication PMC12246392
# Chains of the proteins cited; added tags and fusions are not shown.
# UniProt P07948: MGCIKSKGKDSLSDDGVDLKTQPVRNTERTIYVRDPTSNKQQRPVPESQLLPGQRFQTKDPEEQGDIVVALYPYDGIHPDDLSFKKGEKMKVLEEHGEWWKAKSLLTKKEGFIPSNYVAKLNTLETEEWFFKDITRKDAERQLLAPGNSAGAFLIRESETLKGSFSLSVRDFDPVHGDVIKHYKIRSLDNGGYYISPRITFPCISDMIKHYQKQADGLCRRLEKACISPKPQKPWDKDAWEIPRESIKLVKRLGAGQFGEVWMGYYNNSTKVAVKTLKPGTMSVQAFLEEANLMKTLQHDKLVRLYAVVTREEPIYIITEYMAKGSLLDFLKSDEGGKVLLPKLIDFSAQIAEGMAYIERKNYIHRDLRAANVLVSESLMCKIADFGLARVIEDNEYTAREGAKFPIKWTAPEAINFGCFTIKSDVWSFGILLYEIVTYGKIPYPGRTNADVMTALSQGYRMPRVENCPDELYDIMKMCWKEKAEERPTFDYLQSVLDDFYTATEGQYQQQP
# UniProt Q13568: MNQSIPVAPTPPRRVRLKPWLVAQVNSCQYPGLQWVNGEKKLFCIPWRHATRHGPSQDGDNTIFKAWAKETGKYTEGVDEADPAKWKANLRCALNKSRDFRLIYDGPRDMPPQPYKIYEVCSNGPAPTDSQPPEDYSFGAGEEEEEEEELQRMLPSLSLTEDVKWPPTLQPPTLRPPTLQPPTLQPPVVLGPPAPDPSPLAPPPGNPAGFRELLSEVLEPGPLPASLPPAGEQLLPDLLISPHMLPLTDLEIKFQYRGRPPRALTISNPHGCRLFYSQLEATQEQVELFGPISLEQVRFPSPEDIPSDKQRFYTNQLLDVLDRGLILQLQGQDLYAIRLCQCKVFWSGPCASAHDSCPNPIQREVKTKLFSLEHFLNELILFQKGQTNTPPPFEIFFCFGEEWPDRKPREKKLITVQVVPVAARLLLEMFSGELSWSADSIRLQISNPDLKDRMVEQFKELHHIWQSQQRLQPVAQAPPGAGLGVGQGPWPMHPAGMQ
# No constants are given. Whether binding was seen depends on the method and setting. Some binding calls cover weakened binding; strength is not graded here.
# Legend:
# [1] = target: T1, Recombinant human IKKβ, full-length (human) (UniProt O14920); experiment: far-Western, overlay or dot blot; blot overlay: kinase (bait, 50-200 ng by the legend) spotted on nitrocellulose, blocked with 2% non-fat milk in PBST, overlaid with 100 ng full-length IRF5 for 1 h at RT, detected with an anti-IRF5 antibody; both purified
# T1 sequence: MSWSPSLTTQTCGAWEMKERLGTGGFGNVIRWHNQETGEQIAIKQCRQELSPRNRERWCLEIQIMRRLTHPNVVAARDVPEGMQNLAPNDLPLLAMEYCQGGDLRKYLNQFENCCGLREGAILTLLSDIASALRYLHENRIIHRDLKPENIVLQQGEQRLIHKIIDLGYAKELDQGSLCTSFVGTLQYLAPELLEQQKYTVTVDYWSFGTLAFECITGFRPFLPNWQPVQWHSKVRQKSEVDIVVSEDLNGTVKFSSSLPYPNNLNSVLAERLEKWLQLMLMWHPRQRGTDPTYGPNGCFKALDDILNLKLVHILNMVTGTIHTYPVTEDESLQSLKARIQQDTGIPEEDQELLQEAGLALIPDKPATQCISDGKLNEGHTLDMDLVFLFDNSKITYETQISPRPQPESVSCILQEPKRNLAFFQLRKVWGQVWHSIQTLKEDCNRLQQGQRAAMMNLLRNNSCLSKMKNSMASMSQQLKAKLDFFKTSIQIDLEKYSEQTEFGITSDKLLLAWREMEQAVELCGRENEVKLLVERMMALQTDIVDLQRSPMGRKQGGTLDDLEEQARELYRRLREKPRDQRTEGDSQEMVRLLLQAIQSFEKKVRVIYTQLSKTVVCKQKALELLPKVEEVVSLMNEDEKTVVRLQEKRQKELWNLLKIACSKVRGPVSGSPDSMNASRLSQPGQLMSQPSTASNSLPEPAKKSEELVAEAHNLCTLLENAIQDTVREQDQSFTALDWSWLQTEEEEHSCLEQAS
# [2] = target: Recombinant human Lyn, full-length (human) (UniProt P07948); experiment: as above
substance,measurement,setting,value
"Recombinant human IRF5 (interferon regulatory factor 5), full-length (from UniProt Q13568 1-498)",binding,[1],binds
same,binding,[2],binds
